# Among all 390,000 compounds or so, about 4,000 (1%) were called active. The shares of active, inactive and inconclusive entries below differ from those in the screen. Calls follow the shape of the dose curve; as a rule, active = well fitted inhibition curve with a large enough effect; inconclusive = small, poorly fitted or top-dose-only effect, or another doubt; inactive = no such curve, though single readings can be large or run the other way. A potency beside an inconclusive call is a rough fit, not a confirmed value.
# Chains of the proteins cited; added tags and fusions are not shown. Lines headed by an entry give the natural chain unless they say otherwise; changes in a name come on top.
# UniProt Q9UNA4: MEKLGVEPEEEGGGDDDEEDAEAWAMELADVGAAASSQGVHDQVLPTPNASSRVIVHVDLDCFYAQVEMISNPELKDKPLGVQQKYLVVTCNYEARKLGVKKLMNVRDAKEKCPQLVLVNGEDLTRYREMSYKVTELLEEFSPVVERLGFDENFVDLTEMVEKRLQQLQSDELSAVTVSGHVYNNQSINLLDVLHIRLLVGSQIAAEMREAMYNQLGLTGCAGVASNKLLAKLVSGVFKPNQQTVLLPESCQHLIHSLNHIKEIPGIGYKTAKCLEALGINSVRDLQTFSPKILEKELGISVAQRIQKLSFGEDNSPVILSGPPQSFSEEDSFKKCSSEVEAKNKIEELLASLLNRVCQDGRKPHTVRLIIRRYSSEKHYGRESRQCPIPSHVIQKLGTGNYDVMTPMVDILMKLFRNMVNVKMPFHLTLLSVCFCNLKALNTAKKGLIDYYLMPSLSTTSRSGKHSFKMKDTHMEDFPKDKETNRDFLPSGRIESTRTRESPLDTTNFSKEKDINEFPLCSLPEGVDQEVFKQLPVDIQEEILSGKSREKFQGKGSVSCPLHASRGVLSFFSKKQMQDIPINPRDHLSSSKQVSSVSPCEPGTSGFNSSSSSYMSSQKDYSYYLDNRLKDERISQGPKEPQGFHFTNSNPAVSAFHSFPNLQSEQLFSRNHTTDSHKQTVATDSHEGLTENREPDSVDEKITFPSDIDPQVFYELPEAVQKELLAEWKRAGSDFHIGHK
# Molecular target: DNA polymerase iota (Homo sapiens) (UniProt Q9UNA4)
# Experiment: qHTS for Inhibitors of Polymerase Iota
# Details: Pol iota fluorescent replication assay, 10 min; series mostly up to 115 µM; activity, negative = inhibition: at the top concentration
# Summary of the method: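 Pol iota at 10 nM preincubated 15 min with compounds at room temperature; reaction started with fluorescent substrate, 50 nM final. Fluorescence read kinetically at 0 and 10 min; buffer-only wells as negative control.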
# Potency is read from the fitted curve at half-maximal effect.
SMILES,"activity, negative = inhibition",Potency
Cc1ccc(-n2nc3cc(C)c(NC(=O)COc4ccccc4)cc3n2)cc1,inactive: 21.3%,–
Cn1c(CN2CCOCC2)nc2cc(NC(=O)COc3ccccc3)ccc21,–,"inconclusive: 28.2 µM [inhibitor, partial curve, poor fit]"
Cc1ccc(-c2[nH]ncc2CNCc2ccc(CN(C)C)cc2)cc1,inactive: 29.4%,–
COc1ccc(SCC(=O)c2cc(C)c(OC(=S)N(C)C)c(C)c2)cc1,–,"inconclusive: 28.2 µM [inhibitor, single point]"
CC(C)n1cc2c(c1-c1ccccc1Cl)c(=O)n(C)c(=O)n2C,–,"inconclusive: 79.4 µM [inhibitor, single point]"
Cc1ccc(C)c(NC(=O)Cn2c(=O)n(-c3ccccc3C)c(=O)c3c2c2cc(C)ccc2n3C)c1,–,"inconclusive: 89.1 µM [inhibitor, partial curve, poor fit]"
CCn1c(CNC(=O)C(C)(C)C)nc2ccccc21,–,"inconclusive: 17.8 µM [inhibitor, partial curve, poor fit]"
CSc1nnc(CNC(=O)c2ccccc2)n1-c1cccc(C)c1,inactive: -14%,–
O=C(c1cccs1)N1CCCC(c2nc(-c3ccc(F)cc3)no2)C1 (stereo unspecified),–,"inconclusive: 79.4 µM [inhibitor, partial curve, poor fit]"
CCOc1ccc(NC(=O)N2CCC(n3nnc4ccccc43)CC2)cc1,–,"inconclusive: 89.1 µM [inhibitor, single point]"
COc1ccc(C(=O)CSc2nnc(CN3CCCC3)n2-c2ccc(F)cc2)c(OC)c1,–,"inconclusive: 89.1 µM [inhibitor, single point]"
O=C(N/C(=C/c1ccco1)C(=O)N1CCCCCC1)c1cccs1,–,"inconclusive: 31.6 µM [inhibitor, single point]"
COc1ccc(-c2cc3c(=O)n(CC(=O)NCc4cccnc4)nc(C)n3n2)cc1,–,"inconclusive: 50.1 µM [inhibitor, single point]"
CC(=O)Nc1ccc(NC(=O)c2cc3c(=O)n(Cc4cccnc4)ccc3nc2C)cc1,–,"inconclusive: 89.1 µM [inhibitor, single point]"
O/N=C/c1cn(-c2ccccc2)nc1-c1ccccc1,–,"inconclusive: 100 µM [inhibitor, partial curve, poor fit]"
Nc1nc(N)c2cc([N+](=O)[O-])ccc2n1,inactive: 92.4%,–
Nc1ccc(-c2nc3ccccc3o2)cc1,–,"inconclusive: 1.12 µM [inhibitor, full curve, poor fit]"
COc1cccc(/C=N/NC(=O)Cn2cnc3c2c(=O)n(C)c(=O)n3C)c1,inactive: 151%,–
COc1cc(NC(=O)C2CC(=O)N(CCc3ccccc3)C2)cc(OC)c1 (stereo unspecified),inactive: 18.3%,–
COc1cc(NC(=O)C2CCN(S(=O)(=O)c3c(C)noc3/C=C/c3cccs3)CC2)cc(OC)c1,–,"inconclusive: 89.1 µM [inhibitor, single point]"
O=S(=O)(c1ccc(OC(F)(F)F)cc1)N1CCCC(c2ccccc2)C1 (stereo unspecified),–,"inconclusive: 31.6 µM [inhibitor, single point]"

SMILES,"activity, negative = inhibition",Potency
O=C(N/N=C/c1cn(Cc2cccc(F)c2)c2ccccc12)c1cc(O)cc(O)c1,–,"inconclusive: 0.794 µM [inhibitor, full curve, poor fit]"
Cc1ccc2c(c1)c(=O)c(C(=O)c1ccccc1)cn2Cc1ccccc1F,inactive: 6.33%,–
Cc1cccc(N2CC(c3nc4ccc(C)cc4[nH]3)CC2=O)c1 (stereo unspecified),inactive: 38.2%,–
O=C1CC(N2CCN(c3ccccc3)CC2)C(=O)N1Cc1ccc(Cl)cc1 (stereo unspecified),–,"inconclusive: 50.1 µM [inhibitor, single point]"
CCC1CN(C(=O)Nc2ccccc2C(F)(F)F)c2ccccc2O1 (stereo unspecified),inactive: 19.1%,–
COc1ccc(/C=N/N2C(C)CCCC2C)cc1O (stereo unspecified),inactive: 140%,–
CCOc1ccc(C(=O)NCc2cccnc2)cc1,–,"inconclusive: 100 µM [inhibitor, single point]"
Cc1c(CNC2CCC(C)CC2)c(C(=O)O)c(C)n1Cc1ccccc1F (stereo unspecified),inactive: 17.6%,–
COc1ccc(-c2nc(SCC(=O)c3ccc(Br)cc3)n[nH]2)cc1,–,"inconclusive: 35.5 µM [inhibitor, full curve]"
CC(C)C(NS(=O)(=O)c1ccccc1)C(=O)NC1CCCC1 (stereo unspecified),–,"inconclusive: 25.1 µM [inhibitor, partial curve, poor fit]"
COc1ccc(C(=O)c2nccc3cc(OC)c(OC)cc23)cc1OC,–,"inconclusive: 56.2 µM [inhibitor, partial curve, poor fit]"
Cc1nnc(N2C(=O)C(O)=C(C(=O)c3ccco3)C2c2ccc(C(C)C)cc2)s1 (stereo unspecified),inactive: 17.4%,–
COc1ccc(C(=O)OCC(=O)Nc2ncc([N+](=O)[O-])s2)cc1OC,–,"inconclusive: 7.08 µM [inhibitor, full curve, poor fit]"
C[C@H]1c2cccc(O)c2C(=O)C2C(=O)C3(O)C(=O)C(C(N)=O)C(=O)[C@@H](N(C)C)[C@@H]3[C@@H](O)[C@@H]21 (stereo partly specified),–,"inconclusive: 56.2 µM [inhibitor, partial curve, poor fit]"
COCCN(C(=O)CC1C(=O)NCCN1Cc1ccc(-c2ccccc2)cc1)C(C)C (stereo unspecified),–,"inconclusive: 44.7 µM [inhibitor, partial curve, poor fit]"
Cc1c(NC2=C(Cl)C(=O)N(c3ccccc3Cl)C2=O)c(=O)n(-c2ccccc2)n1C,–,"inconclusive: 89.1 µM [inhibitor, partial curve, poor fit]"
Cc1ccc(C(C2=C(O)CC(C)(C)CC2=O)C2C(=O)CC(C)(C)CC2=O)o1 (stereo unspecified),–,"inconclusive: 17.8 µM [inhibitor, single point]"
CCOC(=O)c1c(-c2ccc(C)s2)csc1N,–,"inconclusive: 22.4 µM [inhibitor, partial curve, poor fit]"
Cc1ccc(S(=O)(=O)Nc2cccc(-c3ccc(N4CCCCCC4)nn3)c2)cc1C,–,"inconclusive: 3.16 µM [inhibitor, full curve, poor fit]"
CCOc1ccc2nc(N3C(=O)C(O)=C(C(=O)c4ccco4)C3c3ccco3)sc2c1 (stereo unspecified),–,"inconclusive: 56.2 µM [inhibitor, partial curve, poor fit]"

# Arranged by number of heavy atoms (smallest number first): some entries from above.
SMILES,"activity, negative = inhibition",Potency
Cc1c(CNC2CCC(C)CC2)c(C(=O)O)c(C)n1Cc1ccccc1F (stereo unspecified),inactive: 17.6%,–
Cc1ccc2c(c1)c(=O)c(C(=O)c1ccccc1)cn2Cc1ccccc1F,inactive: 6.33%,–
COCCN(C(=O)CC1C(=O)NCCN1Cc1ccc(-c2ccccc2)cc1)C(C)C (stereo unspecified),–,"inconclusive: 44.7 µM [inhibitor, partial curve, poor fit]"
